Patent publication US6455250B1, “Endonuclease compositions and methods of use” (The Regents of the University of California, priority 1997, dated 2002)

Test system: Endo-SR (murine, partially purified Fraction IV, DNase II-like) (Mus musculus)
Assay: enzyme reaction in vitro
Conditions: purified native protein, label: 32P

CTAGAGCTGAGCTGAGCTGAGCTGAGCT / CTAGAGCTCAGCTCAGCTCAGCTCAGCT [SµO-5R2]
activity on this sequence (strong double cleavage abolished, single nicks at TGAGC only, no antisense cleavage, variant of SµO-5R1): less active

CTAGAGCTGGGGTGAGCTGAGCTGAGCT / CTAGAGCTCAGCTCAGCTCACCCCAGCT [SµO-5R1]
activity on this sequence (strong double cleavage at TGGGG, weaker single cleavages at TGAGC, antisense cut opposite TGGGG, 37 C): active

Construct, isoform or probe ends are uncertain for at least one entry. A weaker result is weaker than the reference pair of the same experiment.
